# Measured values as given in ChEMBL document CHEMBL1909046, “DrugMatrix in vitro pharmacology data”.
# Chains of the proteins cited; added tags and fusions are not shown. Lines headed by an entry give the natural chain unless they say otherwise; changes in a name come on top. Residues count along the entry.
# UniProt P32241, whole entry: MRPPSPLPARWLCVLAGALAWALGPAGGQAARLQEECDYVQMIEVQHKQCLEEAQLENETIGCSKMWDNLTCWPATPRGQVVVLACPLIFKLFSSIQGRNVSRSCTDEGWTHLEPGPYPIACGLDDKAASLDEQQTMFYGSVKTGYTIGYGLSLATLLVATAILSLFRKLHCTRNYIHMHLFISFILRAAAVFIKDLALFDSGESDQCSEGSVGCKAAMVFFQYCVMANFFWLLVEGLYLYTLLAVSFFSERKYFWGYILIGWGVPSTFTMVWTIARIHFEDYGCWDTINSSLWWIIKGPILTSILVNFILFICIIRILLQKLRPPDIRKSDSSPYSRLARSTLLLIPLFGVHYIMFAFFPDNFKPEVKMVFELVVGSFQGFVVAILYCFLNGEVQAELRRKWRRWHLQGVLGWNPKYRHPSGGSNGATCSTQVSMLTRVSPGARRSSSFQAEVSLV
# UniProt P41597: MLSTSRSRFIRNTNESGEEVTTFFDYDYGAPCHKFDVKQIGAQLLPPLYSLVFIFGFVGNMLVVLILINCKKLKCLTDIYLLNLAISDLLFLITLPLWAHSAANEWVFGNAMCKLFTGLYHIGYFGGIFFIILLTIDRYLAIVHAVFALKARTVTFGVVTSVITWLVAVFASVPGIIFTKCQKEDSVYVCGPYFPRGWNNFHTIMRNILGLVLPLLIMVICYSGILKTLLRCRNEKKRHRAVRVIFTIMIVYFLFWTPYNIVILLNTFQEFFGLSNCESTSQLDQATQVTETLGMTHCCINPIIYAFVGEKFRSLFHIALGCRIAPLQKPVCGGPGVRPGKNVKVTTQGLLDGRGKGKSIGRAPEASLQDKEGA
# UniProt P51681, whole entry: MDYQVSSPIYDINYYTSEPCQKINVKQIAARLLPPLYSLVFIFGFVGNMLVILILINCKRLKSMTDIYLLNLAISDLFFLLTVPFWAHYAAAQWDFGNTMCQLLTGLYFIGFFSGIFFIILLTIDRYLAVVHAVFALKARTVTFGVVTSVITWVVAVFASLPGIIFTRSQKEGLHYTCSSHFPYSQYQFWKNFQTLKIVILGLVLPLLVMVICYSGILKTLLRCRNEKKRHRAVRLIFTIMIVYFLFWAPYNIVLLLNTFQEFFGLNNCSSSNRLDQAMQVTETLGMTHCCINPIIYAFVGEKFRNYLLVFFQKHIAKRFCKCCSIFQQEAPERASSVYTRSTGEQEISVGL
# UniProt P22771: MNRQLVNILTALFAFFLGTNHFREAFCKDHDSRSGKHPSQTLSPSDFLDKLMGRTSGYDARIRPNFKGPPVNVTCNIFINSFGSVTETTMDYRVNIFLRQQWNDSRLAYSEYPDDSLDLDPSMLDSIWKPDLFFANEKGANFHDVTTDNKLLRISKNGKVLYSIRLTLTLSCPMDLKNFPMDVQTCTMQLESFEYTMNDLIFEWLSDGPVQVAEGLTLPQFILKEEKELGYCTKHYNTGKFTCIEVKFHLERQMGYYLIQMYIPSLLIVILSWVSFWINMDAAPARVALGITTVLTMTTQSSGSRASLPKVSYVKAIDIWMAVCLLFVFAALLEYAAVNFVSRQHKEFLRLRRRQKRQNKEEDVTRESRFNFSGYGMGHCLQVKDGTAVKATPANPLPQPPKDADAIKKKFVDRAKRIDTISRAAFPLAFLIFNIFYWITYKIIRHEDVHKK
# UniProt P07727: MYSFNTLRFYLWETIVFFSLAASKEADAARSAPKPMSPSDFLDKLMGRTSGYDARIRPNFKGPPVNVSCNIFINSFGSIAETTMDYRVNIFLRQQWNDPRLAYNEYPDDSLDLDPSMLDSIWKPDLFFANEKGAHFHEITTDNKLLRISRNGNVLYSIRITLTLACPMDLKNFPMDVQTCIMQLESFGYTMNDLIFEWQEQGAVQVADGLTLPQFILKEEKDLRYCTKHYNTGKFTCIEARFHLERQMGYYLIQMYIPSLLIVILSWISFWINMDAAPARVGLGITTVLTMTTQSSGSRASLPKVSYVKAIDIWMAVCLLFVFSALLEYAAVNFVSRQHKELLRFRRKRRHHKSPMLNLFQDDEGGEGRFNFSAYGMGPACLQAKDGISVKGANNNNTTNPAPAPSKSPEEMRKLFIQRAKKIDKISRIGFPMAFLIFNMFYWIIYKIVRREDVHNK
# UniProt P20781: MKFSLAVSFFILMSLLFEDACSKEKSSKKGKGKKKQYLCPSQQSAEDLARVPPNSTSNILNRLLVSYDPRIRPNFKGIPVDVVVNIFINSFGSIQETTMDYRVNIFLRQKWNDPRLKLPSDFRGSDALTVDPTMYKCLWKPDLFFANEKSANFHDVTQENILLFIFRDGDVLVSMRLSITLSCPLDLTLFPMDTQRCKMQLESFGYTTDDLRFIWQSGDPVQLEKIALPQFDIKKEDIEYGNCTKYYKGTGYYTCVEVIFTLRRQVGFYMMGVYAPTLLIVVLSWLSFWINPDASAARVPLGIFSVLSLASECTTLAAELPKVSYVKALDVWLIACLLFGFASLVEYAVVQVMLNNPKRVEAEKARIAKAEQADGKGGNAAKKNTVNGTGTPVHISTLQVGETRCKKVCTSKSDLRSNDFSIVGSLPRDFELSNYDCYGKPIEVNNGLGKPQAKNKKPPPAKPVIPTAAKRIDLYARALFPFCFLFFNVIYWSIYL
# UniProt P15127, 27-759 limits assumed: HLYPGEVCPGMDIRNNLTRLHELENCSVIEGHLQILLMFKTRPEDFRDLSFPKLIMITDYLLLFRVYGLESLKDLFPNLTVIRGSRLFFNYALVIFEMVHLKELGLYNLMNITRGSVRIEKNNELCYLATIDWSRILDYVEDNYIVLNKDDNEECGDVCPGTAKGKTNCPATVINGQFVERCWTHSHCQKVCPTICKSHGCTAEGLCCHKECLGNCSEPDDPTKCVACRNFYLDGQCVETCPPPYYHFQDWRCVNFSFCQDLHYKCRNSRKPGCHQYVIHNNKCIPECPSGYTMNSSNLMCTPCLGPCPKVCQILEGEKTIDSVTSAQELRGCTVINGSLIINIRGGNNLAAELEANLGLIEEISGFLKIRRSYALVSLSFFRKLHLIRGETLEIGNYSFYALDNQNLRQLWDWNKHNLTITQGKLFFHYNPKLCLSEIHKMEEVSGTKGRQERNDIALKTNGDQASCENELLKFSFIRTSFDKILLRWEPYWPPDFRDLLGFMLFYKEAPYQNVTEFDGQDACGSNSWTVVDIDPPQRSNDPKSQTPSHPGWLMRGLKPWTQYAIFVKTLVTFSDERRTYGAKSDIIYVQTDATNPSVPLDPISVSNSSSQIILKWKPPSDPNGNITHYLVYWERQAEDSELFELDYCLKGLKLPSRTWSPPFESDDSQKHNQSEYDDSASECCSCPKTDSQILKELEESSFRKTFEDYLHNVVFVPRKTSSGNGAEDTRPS
# UniProt P15127, 764-1383 limits assumed: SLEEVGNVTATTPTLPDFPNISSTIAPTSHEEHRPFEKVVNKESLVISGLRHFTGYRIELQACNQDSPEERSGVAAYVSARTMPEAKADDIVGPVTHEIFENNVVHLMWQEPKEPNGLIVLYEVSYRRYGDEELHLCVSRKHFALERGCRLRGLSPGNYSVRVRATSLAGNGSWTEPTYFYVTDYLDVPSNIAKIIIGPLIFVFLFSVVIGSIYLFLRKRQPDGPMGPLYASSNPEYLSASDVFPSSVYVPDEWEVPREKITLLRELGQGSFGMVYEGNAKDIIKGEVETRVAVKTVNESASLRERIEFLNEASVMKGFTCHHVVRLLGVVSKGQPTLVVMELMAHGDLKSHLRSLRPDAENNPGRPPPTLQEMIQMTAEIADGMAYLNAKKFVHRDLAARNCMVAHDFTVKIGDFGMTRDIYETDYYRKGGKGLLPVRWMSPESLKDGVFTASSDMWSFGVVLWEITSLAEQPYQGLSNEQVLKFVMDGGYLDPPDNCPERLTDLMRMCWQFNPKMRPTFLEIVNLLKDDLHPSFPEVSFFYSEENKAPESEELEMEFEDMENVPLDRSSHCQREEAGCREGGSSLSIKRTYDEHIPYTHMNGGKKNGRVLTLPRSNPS
# UniProt P29476, whole entry: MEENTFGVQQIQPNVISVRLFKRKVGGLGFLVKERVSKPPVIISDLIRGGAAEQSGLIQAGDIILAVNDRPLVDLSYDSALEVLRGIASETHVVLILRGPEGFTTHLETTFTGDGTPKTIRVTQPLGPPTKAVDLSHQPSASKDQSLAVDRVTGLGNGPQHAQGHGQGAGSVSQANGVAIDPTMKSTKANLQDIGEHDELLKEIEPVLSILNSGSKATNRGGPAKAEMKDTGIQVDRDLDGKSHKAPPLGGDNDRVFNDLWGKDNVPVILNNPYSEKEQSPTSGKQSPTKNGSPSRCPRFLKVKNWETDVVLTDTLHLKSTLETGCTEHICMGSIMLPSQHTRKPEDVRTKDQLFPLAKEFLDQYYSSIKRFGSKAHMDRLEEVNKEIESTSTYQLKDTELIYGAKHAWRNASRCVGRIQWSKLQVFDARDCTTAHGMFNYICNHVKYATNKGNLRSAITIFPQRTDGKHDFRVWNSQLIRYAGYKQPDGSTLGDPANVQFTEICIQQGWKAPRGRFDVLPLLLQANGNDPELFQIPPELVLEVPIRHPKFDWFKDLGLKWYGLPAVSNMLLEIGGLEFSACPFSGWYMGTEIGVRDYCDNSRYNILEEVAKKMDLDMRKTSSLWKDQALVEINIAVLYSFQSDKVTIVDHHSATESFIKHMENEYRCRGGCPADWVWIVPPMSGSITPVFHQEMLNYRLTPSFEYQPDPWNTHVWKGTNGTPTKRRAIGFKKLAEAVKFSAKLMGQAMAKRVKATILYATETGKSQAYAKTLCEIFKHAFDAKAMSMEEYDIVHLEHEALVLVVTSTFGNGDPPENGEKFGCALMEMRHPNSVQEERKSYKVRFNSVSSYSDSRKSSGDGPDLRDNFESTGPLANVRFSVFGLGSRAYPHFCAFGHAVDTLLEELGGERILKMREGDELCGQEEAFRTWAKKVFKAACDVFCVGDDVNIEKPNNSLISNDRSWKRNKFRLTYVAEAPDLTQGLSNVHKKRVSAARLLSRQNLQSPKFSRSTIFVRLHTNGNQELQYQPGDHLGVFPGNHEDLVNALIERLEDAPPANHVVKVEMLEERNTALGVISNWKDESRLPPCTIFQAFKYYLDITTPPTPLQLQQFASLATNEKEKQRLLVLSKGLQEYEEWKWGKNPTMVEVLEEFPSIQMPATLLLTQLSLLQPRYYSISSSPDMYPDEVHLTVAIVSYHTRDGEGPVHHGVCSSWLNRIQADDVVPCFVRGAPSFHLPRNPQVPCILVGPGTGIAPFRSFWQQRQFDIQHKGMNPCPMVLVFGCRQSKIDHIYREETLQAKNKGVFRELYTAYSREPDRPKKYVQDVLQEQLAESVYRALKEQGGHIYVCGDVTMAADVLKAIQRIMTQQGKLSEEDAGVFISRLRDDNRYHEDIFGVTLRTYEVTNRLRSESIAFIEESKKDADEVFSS
# UniProt P35372, whole entry: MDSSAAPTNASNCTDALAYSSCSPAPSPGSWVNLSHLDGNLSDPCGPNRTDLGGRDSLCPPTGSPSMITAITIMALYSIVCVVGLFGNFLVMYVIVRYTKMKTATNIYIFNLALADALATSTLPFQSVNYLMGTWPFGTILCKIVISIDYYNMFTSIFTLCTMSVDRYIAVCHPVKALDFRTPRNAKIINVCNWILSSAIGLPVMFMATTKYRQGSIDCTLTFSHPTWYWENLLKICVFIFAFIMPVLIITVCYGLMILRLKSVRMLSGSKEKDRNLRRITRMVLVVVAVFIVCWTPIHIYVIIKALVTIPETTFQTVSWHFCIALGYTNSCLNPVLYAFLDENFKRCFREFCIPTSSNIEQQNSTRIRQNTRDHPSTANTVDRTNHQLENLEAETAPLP
# UniProt P29466, 317-404 limits assumed: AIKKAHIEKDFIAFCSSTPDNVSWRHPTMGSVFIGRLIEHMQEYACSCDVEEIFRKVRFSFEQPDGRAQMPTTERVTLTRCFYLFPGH
# UniProt P29466, 120-297 limits assumed: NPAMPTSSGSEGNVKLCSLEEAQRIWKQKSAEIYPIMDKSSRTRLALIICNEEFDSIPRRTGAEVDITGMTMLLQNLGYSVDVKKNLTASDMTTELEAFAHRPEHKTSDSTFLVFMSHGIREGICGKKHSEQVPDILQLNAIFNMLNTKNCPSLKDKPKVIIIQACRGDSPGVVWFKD
# UniProt P06241, whole entry: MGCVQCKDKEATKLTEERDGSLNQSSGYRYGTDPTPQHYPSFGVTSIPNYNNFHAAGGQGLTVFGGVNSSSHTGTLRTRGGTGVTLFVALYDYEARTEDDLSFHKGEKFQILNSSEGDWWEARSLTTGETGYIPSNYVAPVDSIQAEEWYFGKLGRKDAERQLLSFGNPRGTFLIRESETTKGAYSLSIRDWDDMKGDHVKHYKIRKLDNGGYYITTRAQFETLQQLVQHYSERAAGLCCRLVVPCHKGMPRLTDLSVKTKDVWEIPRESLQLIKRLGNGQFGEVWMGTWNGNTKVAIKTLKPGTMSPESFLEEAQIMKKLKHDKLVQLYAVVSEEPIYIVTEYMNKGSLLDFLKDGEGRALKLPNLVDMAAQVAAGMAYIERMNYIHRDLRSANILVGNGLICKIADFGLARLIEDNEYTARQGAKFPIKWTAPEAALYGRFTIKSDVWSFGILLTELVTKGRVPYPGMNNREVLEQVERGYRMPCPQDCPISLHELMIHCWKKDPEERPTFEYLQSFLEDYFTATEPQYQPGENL
# Experiments:
# [1] = target: T1, Alpha-1B adrenergic receptor (Rattus norvegicus, UniProt P15823); assay: DRUGMATRIX: Alpha-1B adrenergic receptor radioligand binding (ligand: prazosin); format: cell membranes, Wistar, Liver, Membrane; conditions: Not Active = under 50% inhibition at 10 µM
# T1 sequence (P15823 whole entry): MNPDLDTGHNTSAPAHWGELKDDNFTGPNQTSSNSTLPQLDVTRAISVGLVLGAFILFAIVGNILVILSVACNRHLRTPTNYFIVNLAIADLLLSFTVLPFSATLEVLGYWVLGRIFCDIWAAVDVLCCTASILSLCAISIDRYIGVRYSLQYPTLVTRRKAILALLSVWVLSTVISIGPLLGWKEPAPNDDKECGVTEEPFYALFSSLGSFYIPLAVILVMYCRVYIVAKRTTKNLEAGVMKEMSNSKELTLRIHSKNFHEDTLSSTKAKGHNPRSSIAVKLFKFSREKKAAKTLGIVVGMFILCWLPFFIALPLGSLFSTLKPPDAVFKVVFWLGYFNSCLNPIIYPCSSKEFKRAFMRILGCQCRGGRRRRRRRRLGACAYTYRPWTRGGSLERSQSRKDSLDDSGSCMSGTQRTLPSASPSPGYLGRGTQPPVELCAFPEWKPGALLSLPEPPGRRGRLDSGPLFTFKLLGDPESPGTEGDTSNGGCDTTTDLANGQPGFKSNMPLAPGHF
# B2 bradykinin receptor = B2 bradykinin receptor (Homo sapiens, UniProt P30411); format: cell membranes, Membrane; conditions: chem-1; note: in other assays of this panel Not Active means under 50% inhibition at 10 µM
# Calcitonin receptor = Calcitonin receptor (Homo sapiens, UniProt P30988); format: cell membranes, Membrane; conditions: t47d; note: in other assays of this panel Not Active means under 50% inhibition at 10 µM
# Substance-P receptor = Substance-P receptor (Homo sapiens, UniProt P25103); format: cell membranes, Membrane; conditions: cho; note: in other assays of this panel Not Active means under 50% inhibition at 10 µM
# Thromboxane-A synthase = Thromboxane-A synthase (Homo sapiens, UniProt P24557); format: tissue-based; conditions: platelet;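 note: enzyme inhibition assay with PGH2 supplied as substrate; in other assays of this panel Not Active means under 50% inhibition at 10 µM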
# [2] = target: Vascular endothelial growth factor receptor 1 (Homo sapiens, UniProt P17948); format: cell-based; conditions: huvec; note: in other assays of this panel Not Active means under 50% inhibition at 10 µM
# [3] = target: Vasoactive intestinal polypeptide receptor 1 (Homo sapiens, UniProt P32241); format: cell membranes, Membrane; conditions: ht-29; note: in other assays of this panel Not Active means under 50% inhibition at 10 µM
# [4] = target: C-C chemokine receptor type 2 (Homo sapiens, UniProt P41597); format: cell membranes, Membrane; conditions: cho-k1; note: in other assays of this panel Not Active means under 50% inhibition at 10 µM
# [5] = target: C-C chemokine receptor type 5 (Homo sapiens, UniProt P51681); format: cell membranes, Membrane; conditions: hek293; note: in other assays of this panel Not Active means under 50% inhibition at 10 µM
# [6] = target: Cholecystokinin receptor type A (Homo sapiens, UniProt P32238); format: cell membranes, Membrane; conditions: 1321-n1; note: in other assays of this panel Not Active means under 50% inhibition at 10 µM
# D(3) dopamine receptor = D(3) dopamine receptor (Homo sapiens, UniProt P35462); assay: DRUGMATRIX: Dopamine D3 radioligand binding (ligand: [3H] Spiperone); format: cell membranes, CHO, Membrane; conditions: cho
# Endothelin-1 receptor = Endothelin-1 receptor (Homo sapiens, UniProt P25101); format: cell membranes, Membrane; conditions: cho-k1; note: in other assays of this panel Not Active means under 50% inhibition at 10 µM
# Glycine receptor = Glycine receptor (Rattus norvegicus, UniProt P22771+P24524+P07727+P20781); format: cell membranes, Wistar, Spinal cord, Membrane; note: in other assays of this panel Not Active means under 50% inhibition at 10 µM
# Insulin receptor = Insulin receptor (Rattus norvegicus, UniProt P15127); format: cell membranes, Wistar, Liver, Membrane; note: in other assays of this panel Not Active means under 50% inhibition at 10 µM
# [7] = target: Polyunsaturated fatty acid lipoxygenase ALOX15 (Oryctolagus cuniculus, UniProt P12530); format: tissue-based; conditions: reticulocytes
# Melanocortin receptor 3 = Melanocortin receptor 3 (Homo sapiens, UniProt P41968); format: cell membranes, Membrane; conditions: hek293; note: in other assays of this panel Not Active means under 50% inhibition at 10 µM
# Melanocortin receptor 5 = Melanocortin receptor 5 (Homo sapiens, UniProt P33032); format: cell membranes, Membrane; conditions: hek293; note: in other assays of this panel Not Active means under 50% inhibition at 10 µM
# [8] = target: Neuropeptide Y receptor type 2 (Homo sapiens, UniProt P49146); format: cell membranes, Membrane; conditions: kan-ts; note: in other assays of this panel Not Active means under 50% inhibition at 10 µM
# Nitric oxide synthase 1 = Nitric oxide synthase 1 (Rattus norvegicus, UniProt P29476); format: tissue-based, Cerebellum; note: in other assays of this panel Not Active means under 50% inhibition at 10 µM
# Mu-type opioid receptor = Mu-type opioid receptor (Homo sapiens, UniProt P35372); assay: DRUGMATRIX: Opiate mu (OP3, MOP) radioligand binding (ligand: [3H] Diprenorphine); format: cell membranes, Membrane; conditions: cho-k1; Not Active = under 50% inhibition at 10 µM
# [9] = target: Angiotensin-converting enzyme (Oryctolagus cuniculus, UniProt P12822); format: tissue-based, Lung
# Caspase-1 = Caspase-1 (Homo sapiens, UniProt P29466); set-up: species or system Escherichia coli
# [10] = target: Matrix metalloproteinase-9 (Homo sapiens, UniProt P14780); format: cell-based
# [11] = target: Mitogen-activated protein kinase 1 (Homo sapiens, UniProt P28482); assay: DRUGMATRIX: Protein Serine/Threonine Kinase, ERK2 enzyme inhibition (substrate: Myelin Basic Protein); set-up: species or system Escherichia coli; conditions: Not Active = under 50% inhibition at 10 µM
# [12] = target: Protein phosphatase 3 catalytic subunit alpha (Homo sapiens, UniProt Q08209); set-up: species or system Escherichia coli
# [13] = target: Epidermal growth factor receptor (Homo sapiens, UniProt P00533); assay: DRUGMATRIX: Protein Tyrosine Kinase, EGF Receptor enzyme inhibition (substrate: Poly(Glu:Tyr)); format: cell-based; conditions: insect cells; Not Active = under 50% inhibition at 10 µM
# [14] = target: Tyrosine-protein kinase Fyn (Homo sapiens, UniProt P06241); assay: biochemical; format: cell-based, Insect cells
# [15] = target: Receptor tyrosine-protein kinase erbB-2 (Homo sapiens, UniProt P04626); assay: biochemical; format: cell-based, Insect cells
# [16] = target: Receptor-type tyrosine-protein phosphatase C (Homo sapiens, UniProt P08575); set-up: species or system Escherichia coli
# [17] = target: 5-hydroxytryptamine receptor 1A (Rattus norvegicus, UniProt P19327); format: cell membranes, Membrane; conditions: cho-k1; note: in other assays of this panel Not Active means under 50% inhibition at 10 µM
# [18] = target: 5-hydroxytryptamine receptor 1B (Rattus norvegicus, UniProt P28564); format: cell membranes, Wistar, Cerebral cortex, Membrane; note: in other assays of this panel Not Active means under 50% inhibition at 10 µM
# Acetylcholinesterase = Acetylcholinesterase (Homo sapiens, UniProt P22303); assay: DRUGMATRIX: Acetylcholinesterase enzyme inhibition (substrate: acetylthiocholine); format: cell-based, HEK293; conditions: Not Active = under 50% inhibition at 10 µM
# Adenosine receptor A2a = Adenosine receptor A2a (Homo sapiens, UniProt P29274); assay: DRUGMATRIX: Adenosine A2A radioligand binding (ligand: […]); format: cell membranes, Membrane; conditions: hek293; Not Active = under 50% inhibition at 10 µM
SMILES,IC50 [1],IC50 (B2 bradykinin receptor),IC50 (Calcitonin receptor),IC50 (Substance-P receptor),IC50 (Thromboxane-A synthase),IC50 [2],IC50 [3],IC50 [4],IC50 [5],IC50 [6],IC50 (D(3) dopamine receptor),IC50 (Endothelin-1 receptor),IC50 (Glycine receptor),IC50 (Insulin receptor),IC50 [7],IC50 (Melanocortin receptor 3),IC50 (Melanocortin receptor 5),IC50 [8],IC50 (Nitric oxide synthase 1),IC50 (Mu-type opioid receptor),also measured
CCC(C)C(C(=O)OCC[N+](C)(CC)CC)c1ccccc1.[Br-] (centres undefined) [VALETHAMATE BROMIDE],Not Active,Not Active,Not Active,Not Active,Not Active,Not Active,Not Active,Not Active,Not Active,Not Active,Not Active,Not Active,Not Active,Not Active,Not Active,Not Active,Not Active,Not Active,Not Active,Not Active,IC50 [9]: Not Active; IC50 (Caspase-1): Not Active; IC50 [10]: Not Active; IC50 [11]: Not Active; IC50 [12]: Not Active; IC50 [13]: Not Active; IC50 ([14]; insect cells): Not Active; IC50 ([15]; insect cells): Not Active; IC50 [16]: Not Active; IC50 [17]: Not Active; IC50 [18]: Not Active; IC50 (Acetylcholinesterase; hek293): Not Active; IC50 (Adenosine receptor A2a): Not Active
CC(C)(C)CC(C)(C)c1ccc(OCCOCC[N+](C)(C)Cc2ccccc2)cc1.[Cl-] [BENZETHONIUM CHLORIDE],Not Active,Not Active,Not Active,Not Active,Not Active,Not Active,Not Active,Not Active,Not Active,Not Active,Not Active,Not Active,Not Active,Not Active,Not Active,Not Active,Not Active,Not Active,Not Active,Not Active,IC50 [9]: Not Active; IC50 (Caspase-1): Not Active; IC50 [10]: Not Active; IC50 [11]: Not Active; IC50 [12]: Not Active; IC50 [13]: Not Active; Ki ([14]; insect cells): Note: corresponding IC50 reported as Active; IC50 ([14]; read-out: IC50): 0.768 µM; Ki ([15]; insect cells): Note: corresponding IC50 reported as Active; IC50 ([15]; read-out: IC50): 2.08 µM; IC50 [16]: Not Active; IC50 [17]: Not Active; IC50 [18]: Not Active; IC50 (Acetylcholinesterase; read-out: IC50): 2.25 µM; Ki (Acetylcholinesterase; hek293): Note: corresponding IC50 reported as Active; IC50 (Adenosine receptor A2a): Not Active
